# Experimental data reported in patent publication US5622933A, “Multiple branch peptide constructions for use against HIV” (priority 1993, dated 1997).
# Like-named read-outs stand apart in the source and are kept apart here. Part of at least one peptide drawing is inferred or uncertain, most often the ends. Ends that are not written are not given here.
# Columns and labels:
# Type in all cases: cell-based
# HIV-1MN = test: Syncytia formation blockage (chronically infected cells + uninfected Molt-4 cells); design: key: -: The presence of syncytia is indicated by + signs, allocated in approximate proportion to the quantities counted; The presence of syncytia is indicated by + signs, allocated in approximate proportion to the quantities counted; ++: The presence of syncytia is indicated by + signs, allocated in approximate proportion to the quantities counted; +++: The presence of syncytia is indicated by + signs, allocated in approximate proportion to the quantities counted; ++++: The presence of syncytia is indicated by + signs, allocated in approximate proportion to the quantities counted
# Protocol: (§1) CEM or C8166 cells were chronically infected with HIV-1 Lai or HIV-2 Rod, or HIV-1MN, respectively. Infected cells (1×10^4) were incubated for 2 hours with various concentrations of MBPCs in 96-well plates. Uninfected Molt-4 cells (4×10^4) were then added in […]. Syncytia were counted after 18 hours at 37° C.
# HIV-1Lai = test: as above; design: key: -: The presence of syncytia is indicated by + signs, allocated in approximate proportion to the quantities counted; The presence of syncytia is indicated by + signs, allocated in approximate proportion to the quantities counted; ++: The presence of syncytia is indicated by + signs, allocated in approximate proportion to the quantities counted; +++: The presence of syncytia is indicated by + signs, allocated in approximate proportion to the quantities counted; ++++: The presence of syncytia is indicated by + signs, allocated in approximate proportion to the quantities counted
# Protocol: as §1
# HIV-2Rod = test: as above; design: key: -: The presence of syncytia is indicated by + signs, allocated in approximate proportion to the quantities counted; The presence of syncytia is indicated by + signs, allocated in approximate proportion to the quantities counted; ++: The presence of syncytia is indicated by + signs, allocated in approximate proportion to the quantities counted; +++: The presence of syncytia is indicated by + signs, allocated in approximate proportion to the quantities counted; ++++: The presence of syncytia is indicated by + signs, allocated in approximate proportion to the quantities counted
# Protocol: as §1
# HIV = test: Inhibition of syncytia formation induced by HIV (summary statements)
# Protocol: as §1
substance,measurement,setting,value
"GPGRAF [Mono.3, GPGRAF, reference compound]",Syncytia formation,HIV-1MN; MBPC Conc. 10^-5 M,++++
same,Syncytia formation,HIV-1MN; MBPC Conc. 10^-6 M,++++
same,Syncytia formation,HIV-1MN; MBPC Conc. 10^-7 M,++++
same,Syncytia formation,HIV-1Lai; MBPC Conc. 10^-5 M,++++
same,Syncytia formation,HIV-1Lai; MBPC Conc. 10^-6 M,++++
same,Syncytia formation,HIV-1Lai; MBPC Conc. 10^-7 M,++++
same,Syncytia formation,HIV-2Rod; MBPC Conc. 10^-5 M,++++
same,Syncytia formation,HIV-2Rod; MBPC Conc. 10^-6 M,++++
same,Syncytia formation,HIV-2Rod; MBPC Conc. 10^-7 M,++++
same,"inhibiting effect on syncytia formation, in words",HIV,wholly inactive
same,"inhibiting effect on syncytia formation, in words",HIV; 10^-4 M,wholly inactive
